About 22,000 (6.9%) of roughly 320,000 compounds were called active. This list was built around the results that the source calls inconclusive (neither active nor inactive); the mix of calls is not that of the screen. The call rests on the fitted dose curve; in most records, active means well fitted inhibition curve with a large enough effect; inconclusive means small, poorly fitted or top-dose-only effect, or another doubt; inactive means no such curve, though single readings can be large or run the other way. Where the call is inconclusive, the potency comes from a doubtful curve fit.
Experiment: Primary qHTS for delayed death inhibitors of the malarial parasite plastid, 96 hour incubation
Conditions: P. falciparum luciferase reporter growth; series mostly up to 28.7 µM
How it was run: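 Delayed-death screen, second-generation endpoint: infected erythrocytes, 2% hematocrit, 0.05% parasitemia final; 96 hours at 37 C, 5% CO2; luciferase detection reagent; luminescence decrease equals reduced growth.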
Potency means the concentration at half of the fitted maximal effect.

Compound	Potency
Cc1cc(C)n(-c2nc3ccccc3n3c(C)nnc23)n1	inconclusive: 0.233 µM [inhibitor, full curve, poor fit]
COc1ccc(C(=O)c2ccc(CC(=O)O)s2)cc1	inconclusive: 5.22 µM [inhibitor, partial curve]
COc1cc(NC(=O)CN2C(=O)c3ccccc3C2=O)c(C(=O)O)cc1OC	inconclusive: 13.1 µM [inhibitor, single point]
Cc1ccc(NC(=O)CSc2ncccn2)cc1S(=O)(=O)N1CCCCC1	inconclusive: 10.4 µM [inhibitor, partial curve, poor fit]
CNC(=O)c1c[nH]c2ccc(S(=O)(=O)Nc3cccc(SC)c3)cc2c1=O	inactive
O=S(=O)(c1ccccc1)N1CCN=C1SCc1ccc(Cl)cc1	inconclusive: 3.7 µM [inhibitor, partial curve]
Cc1cc(C)n(CC(O)COc2ccc(F)cc2)n1 (stereo not drawn)	inconclusive: 4.15 µM [inhibitor, single point]
CCOc1ccc(C(=O)Nc2c3c(nn2-c2ccccc2)CS(=O)(=O)C3)cc1	inactive
O=C(NCc1ccc2c(c1)OCO2)c1cccs1	inactive
CCN(CC)CCOc1cc2c(nn1)Oc1ccccc1N2C	active: 3.29 µM
Cc1ccc(C(=O)NC2CCCc3c2cnn3-c2ccc(F)cc2F)cn1 (stereo not drawn)	inconclusive: 3.7 µM [inhibitor, full curve]
C/C(=N/N=C1\SCC(=O)N1c1ccccc1)c1ccc(C)cc1	inconclusive: 2.08 µM [inhibitor, full curve]
Cc1cc(C)n(CCC(=O)N2CCCC(N3CCN(c4cccc(Cl)c4)CC3)C2)n1 (stereo not drawn)	inactive
O=C(CSc1nc2ccccc2c(=O)n1NC(=O)Cc1ccccc1)NCCc1ccccc1	inconclusive: 18.5 µM [inhibitor, single point]
COc1ccccc1C1N(c2ccc(F)cc2)C(=O)C2CCCN21 (stereo not drawn)	inactive
CN(CC(=O)NCc1ccccc1Cl)S(=O)(=O)c1ccc2c(c1)n(C)c(=O)c(=O)n2C	inactive
Cc1cc(NC(=O)C2CCCN(S(=O)(=O)c3cnc[nH]3)C2)ccc1Br (stereo not drawn)	active: 4.15 µM
CCCCn1cnc2c([nH]c3ccccc32)c1=O	inactive
COc1ccc(/C=N/NC(=O)CCc2c(C)n[nH]c2C)cc1O	inactive
O=C(Cc1ccccc1)NCC(=O)N1CCCCCC1	inconclusive: 18.5 µM [inhibitor, single point]
COC(=O)C(NS(C)(=O)=O)(c1c(C)[nH]c2ccccc12)C(F)(F)F (stereo not drawn)	inactive
CCn1c(=O)n(CC)c2cc(N3CCCC3)c(NC(=O)c3ccccc3F)cc21	active: 1.31 µM
CN1C(=O)/C(=C/c2cn(CC(=O)NCc3ccco3)c3ccccc23)NC1=S	inconclusive: 3.7 µM [inhibitor, single point]
COc1cccc(CNC(=O)C(=O)NCCC2CCCCN2S(=O)(=O)c2ccc(C)cc2)c1 (stereo not drawn)	active: 10.4 µM
O=C(CS(=O)(=O)Cc1ccccc1)Nc1nc2ccccc2s1	inactive

A run of entries from the list above:
Compound	Potency
Cc1cc(C)n(CCC(=O)N2CCCC(N3CCN(c4cccc(Cl)c4)CC3)C2)n1 (stereo not drawn)	inactive
O=C(CSc1nc2ccccc2c(=O)n1NC(=O)Cc1ccccc1)NCCc1ccccc1	inconclusive: 18.5 µM [inhibitor, single point]
COc1ccccc1C1N(c2ccc(F)cc2)C(=O)C2CCCN21 (stereo not drawn)	inactive
CN(CC(=O)NCc1ccccc1Cl)S(=O)(=O)c1ccc2c(c1)n(C)c(=O)c(=O)n2C	inactive
Cc1cc(NC(=O)C2CCCN(S(=O)(=O)c3cnc[nH]3)C2)ccc1Br (stereo not drawn)	active: 4.15 µM
CCCCn1cnc2c([nH]c3ccccc32)c1=O	inactive
COc1ccc(/C=N/NC(=O)CCc2c(C)n[nH]c2C)cc1O	inactive
O=C(Cc1ccccc1)NCC(=O)N1CCCCCC1	inconclusive: 18.5 µM [inhibitor, single point]
COC(=O)C(NS(C)(=O)=O)(c1c(C)[nH]c2ccccc12)C(F)(F)F (stereo not drawn)	inactive
CCn1c(=O)n(CC)c2cc(N3CCCC3)c(NC(=O)c3ccccc3F)cc21	active: 1.31 µM
CN1C(=O)/C(=C/c2cn(CC(=O)NCc3ccco3)c3ccccc23)NC1=S	inconclusive: 3.7 µM [inhibitor, single point]
COc1cccc(CNC(=O)C(=O)NCCC2CCCCN2S(=O)(=O)c2ccc(C)cc2)c1 (stereo not drawn)	active: 10.4 µM
O=C(CS(=O)(=O)Cc1ccccc1)Nc1nc2ccccc2s1	inactive

Remaining list, next part

Compound	Potency
COCCn1c(C)cc(/C=N/NC(=O)c2cc3ccccc3cc2O)c1C	active: 9.28 µM
COc1cc(CCN2C(=O)c3cccc4cccc(c34)C2=O)c(S(=O)(=O)N2CCC(C)CC2)cc1OC	inconclusive: 3.29 µM [inhibitor, full curve, poor fit]
CCN(C(=O)c1cc2cc(OC)ccc2oc1=O)c1cccc(C)c1	inconclusive: 18.5 µM [inhibitor, single point]
O=C(Nc1nnc(SCc2ccccn2)s1)C1CC(=O)N(c2ccccc2)C1 (stereo not drawn)	inconclusive: 16.5 µM [inhibitor, single point]
CC(C)CCOP(=O)(c1ccc(N(C)C)cc1)C(O)c1ccccc1F (stereo not drawn)	inconclusive: 18.5 µM [inhibitor, single point]
COc1ccccc1CN(C)c1nnnn1-c1ccccc1	inconclusive: 14.7 µM [inhibitor, single point]
CN(C)S(=O)(=O)c1cccc(NC(=S)N/N=C/c2cccc(O)c2)c1	inconclusive: 7.38 µM [inhibitor, partial curve, poor fit]
Cc1cc2nc(N3CCN(C(=O)c4cccs4)CC3)sc2cc1C	inactive
Cc1ccc(NC(=O)Nc2c(Cl)cccc2Cl)cn1	inactive
CNC(=O)COC(=O)c1ccc2c(c1)NC(=O)C1CCCN21 (stereo not drawn)	inactive
CCOc1ccc(N(Cc2cc3ccc(C)cc3[nH]c2=O)S(=O)(=O)c2ccccc2)cc1	inconclusive: 18.5 µM [inhibitor, single point]
CC1=Nc2ccc(Br)cc2C(c2ccccc2)N1CC(=O)NN (stereo not drawn)	inactive
CCCSC1=C(C#N)C(c2ccccc2C)C(C(=O)OC)C(=O)N1 (stereo not drawn)	inconclusive: 18.5 µM [inhibitor, single point]
CN(C)c1ccc(NC(=O)COC(=O)c2cc(=O)c3ccccc3o2)cc1	inactive
C=CCOC(=O)c1[nH]c2c(c1C)C(=O)CC(c1cc(OC)c(OC)c(OC)c1)C2 (stereo not drawn)	active: 11.7 µM
COC(=O)c1ccc(NC(=O)CCS(=O)(=O)c2ccc(Br)s2)cc1	inconclusive: 14.7 µM [inhibitor, partial curve, poor fit]
O=S(=O)(/N=C/c1c(O)ccc2ccccc12)c1cccs1	inactive
O=C1CC(c2ccccc2)CC(O)=C1C=NC1CCCCC1 (stereo not drawn)	inconclusive: 0.262 µM [inhibitor, full curve]
CCn1c(/C=C/c2ccc(O)c(O)c2)nc2ccccc2c1=O	inconclusive: 10.4 µM [inhibitor, partial curve]
Cc1ccc(NC(=O)CCOc2ccccc2)cc1	inactive
COc1ccc(N(CC(=O)Nc2ccc3c(c2)OCO3)S(=O)(=O)c2ccccc2)cc1OC	inconclusive: 18.5 µM [inhibitor, single point]
COc1cccc(C2N(c3cccc(Cl)c3)C(=O)C3CCCN32)c1OC (stereo not drawn)	inactive
CC(=O)Nc1sc(C)c(C)c1C(=O)OCCOc1ccccc1	inactive
CCOc1ccccc1N1CCN(CC(=O)Nc2ccnn2C2CCCC2)CC1	inactive
C=CCOc1ccccc1CN1CCCCCC1	inconclusive: 18.5 µM [inhibitor, single point]

Compound	Potency
Cc1cc(NC(=O)COC(=O)C2CC(=O)N(c3ccccc3Cl)C2)no1 (stereo not drawn)	inconclusive: 0.294 µM [inhibitor, full curve]
O=C(Cc1ccc(F)cc1)NCC1CCCO1 (stereo not drawn)	inconclusive: 5.22 µM [inhibitor, partial curve, poor fit]
O=C(NC(=S)Nc1ccc(Cl)cn1)c1cccs1	inconclusive: 8.28 µM [inhibitor, partial curve, poor fit]
CC(C)CCNC(=O)CCCC1=NS(=O)(=O)c2ccccc2N1	inconclusive: 11.7 µM [inhibitor, single point]
Cc1ccc(C(c2cc(Br)ccc2O)N2CCSCC2)cc1 (stereo not drawn)	active: 14.7 µM
CCOc1ccc(-n2c(-c3ccoc3)nc3ccccc3c2=O)cc1	inconclusive: 11.7 µM [inhibitor, single point]
COc1ccccc1NC(=O)N(c1c(N)n(Cc2ccccc2)c(=O)[nH]c1=O)C1CCCC1	inconclusive: 7.38 µM [inhibitor, partial curve]
Oc1ccc(-c2csc(Nc3ncccn3)n2)cc1O	inactive
Cc1cc(C)n(-c2c(F)c(F)c(CN3CCOCC3)c(F)c2F)n1	inactive
CCOc1ccc(S(=O)(=O)N(C)c2ccc(OCC(=O)Nc3nc4ccccc4s3)cc2)cc1	inconclusive: 2.33 µM [inhibitor, single point]
CC1=C(C(=O)NCCc2ccc(C)cc2)C2(CCC(C)CC2)OC1=O (stereo not drawn)	inconclusive: 10.4 µM [inhibitor, single point]
Cc1cc(N)ccc1-c1cc2ccccc2oc1=O	inconclusive: 10.4 µM [inhibitor, single point]
CCOC(=O)c1c(C)nc2cc(C)cc(C)n12	inactive
Oc1ccc(-c2nc3ccccc3nc2-c2ccccc2)cc1	inactive
CCOC(=O)[C@H]1[C@H]2COc3ccc(Br)cc3[C@@H]2N2C(=O)CN(Cc3ccco3)C(=O)[C@@]12C	inconclusive: 14.7 µM [inhibitor, partial curve, poor fit]
N/C(=N\OC(=O)c1ccc(OCC(F)(F)F)nc1)c1ccc(Cl)cc1	inconclusive: 13.1 µM [inhibitor, single point]
O=C(COC(=O)c1cc(S(=O)(=O)N2CCOCC2)ccc1O)Nc1cc(S(=O)(=O)N2CCCC2)ccc1Cl	inconclusive: 5.22 µM [inhibitor, partial curve, poor fit]
COc1ccc([N+](=O)[O-])cc1NC(=O)CSCc1ccccc1C	inconclusive: 18.5 µM [inhibitor, single point]
COC(=O)c1[nH]c2cccc(C)c2c1NC(=O)CN1CCCc2ccccc21	inconclusive: 18.5 µM [inhibitor, single point]
C=CCn1c(SCC(=O)N(C)c2c(N)n(Cc3ccccc3)c(=O)[nH]c2=O)nnc1-c1ccccc1OC	inactive
O=C(Nc1ccccc1Cl)c1ccc(-n2cccn2)c([N+](=O)[O-])c1	inconclusive: 4.15 µM [inhibitor, single point]
CCN1C[C@]2(OC(=O)c3ccccc3NC(C)=O)CCC(OC)C34C5C[C@H]6C(OC)[C@]5(O)[C@](O)(C[C@@H]6OC)C(C[C@@H]32)[C@H]14 (stereo partly drawn)	inconclusive: 1.17 µM [inhibitor, partial curve, poor fit]
CCOc1ccc(NC(=O)CN(C)C(=O)c2ccc3nc(CC)c(CC)nc3c2)cc1OCC	inconclusive: 13.1 µM [inhibitor, partial curve, poor fit]

Three compounds already listed, arranged by molecular weight, largest number first:
Compound	Potency
COc1cccc(CNC(=O)C(=O)NCCC2CCCCN2S(=O)(=O)c2ccc(C)cc2)c1 (stereo not drawn)	active: 10.4 µM
Cc1cc(NC(=O)C2CCCN(S(=O)(=O)c3cnc[nH]3)C2)ccc1Br (stereo not drawn)	active: 4.15 µM
O=C(Nc1nnc(SCc2ccccn2)s1)C1CC(=O)N(c2ccccc2)C1 (stereo not drawn)	inconclusive: 16.5 µM [inhibitor, single point]
